Measured values as given in publication PMC6695496.
Results are given in words; binding and its absence hold for the method and conditions named. In cells and extracts the contact can be indirect. Some binding calls cover weakened binding; strength is not graded here.

By UniProt entry, the sequences of proteins in these tests, tags left out.
UniProt P30153: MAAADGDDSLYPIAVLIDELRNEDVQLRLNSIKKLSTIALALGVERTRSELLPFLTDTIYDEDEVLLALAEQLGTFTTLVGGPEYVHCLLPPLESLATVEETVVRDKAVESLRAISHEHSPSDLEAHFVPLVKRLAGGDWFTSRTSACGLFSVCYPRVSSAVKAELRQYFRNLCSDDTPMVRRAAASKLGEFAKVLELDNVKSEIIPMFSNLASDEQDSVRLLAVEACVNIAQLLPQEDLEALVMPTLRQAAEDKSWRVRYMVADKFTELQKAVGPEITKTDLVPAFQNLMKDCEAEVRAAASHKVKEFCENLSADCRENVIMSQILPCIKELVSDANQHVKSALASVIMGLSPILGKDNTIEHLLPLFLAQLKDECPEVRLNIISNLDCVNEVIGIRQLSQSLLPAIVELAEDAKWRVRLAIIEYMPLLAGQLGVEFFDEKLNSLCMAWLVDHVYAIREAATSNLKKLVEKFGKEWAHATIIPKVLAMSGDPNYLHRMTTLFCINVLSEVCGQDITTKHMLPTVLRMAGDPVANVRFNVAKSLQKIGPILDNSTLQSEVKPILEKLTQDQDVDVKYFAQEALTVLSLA
UniProt Q92973: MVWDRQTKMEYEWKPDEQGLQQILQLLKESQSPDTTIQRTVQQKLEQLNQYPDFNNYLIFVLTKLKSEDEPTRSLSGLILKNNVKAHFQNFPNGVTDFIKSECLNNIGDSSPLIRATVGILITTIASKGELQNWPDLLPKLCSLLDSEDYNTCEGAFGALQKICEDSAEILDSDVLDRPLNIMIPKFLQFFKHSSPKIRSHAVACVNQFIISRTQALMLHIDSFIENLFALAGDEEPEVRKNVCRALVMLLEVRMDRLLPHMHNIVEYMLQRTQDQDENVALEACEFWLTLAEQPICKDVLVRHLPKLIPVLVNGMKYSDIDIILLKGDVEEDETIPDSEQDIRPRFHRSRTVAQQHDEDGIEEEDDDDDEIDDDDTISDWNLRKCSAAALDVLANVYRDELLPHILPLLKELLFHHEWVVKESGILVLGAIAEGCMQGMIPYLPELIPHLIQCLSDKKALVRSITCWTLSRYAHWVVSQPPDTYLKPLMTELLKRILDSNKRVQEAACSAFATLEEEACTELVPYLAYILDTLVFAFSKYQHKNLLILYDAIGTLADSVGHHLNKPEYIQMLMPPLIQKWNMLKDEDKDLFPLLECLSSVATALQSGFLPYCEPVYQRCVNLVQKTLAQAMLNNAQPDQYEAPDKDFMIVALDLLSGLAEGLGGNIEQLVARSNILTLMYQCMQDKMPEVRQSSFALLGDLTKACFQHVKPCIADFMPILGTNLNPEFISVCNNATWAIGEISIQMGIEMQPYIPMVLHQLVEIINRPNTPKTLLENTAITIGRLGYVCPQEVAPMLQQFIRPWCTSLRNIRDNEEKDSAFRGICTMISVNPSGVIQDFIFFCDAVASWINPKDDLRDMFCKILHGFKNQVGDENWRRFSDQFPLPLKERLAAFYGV
UniProt P49841: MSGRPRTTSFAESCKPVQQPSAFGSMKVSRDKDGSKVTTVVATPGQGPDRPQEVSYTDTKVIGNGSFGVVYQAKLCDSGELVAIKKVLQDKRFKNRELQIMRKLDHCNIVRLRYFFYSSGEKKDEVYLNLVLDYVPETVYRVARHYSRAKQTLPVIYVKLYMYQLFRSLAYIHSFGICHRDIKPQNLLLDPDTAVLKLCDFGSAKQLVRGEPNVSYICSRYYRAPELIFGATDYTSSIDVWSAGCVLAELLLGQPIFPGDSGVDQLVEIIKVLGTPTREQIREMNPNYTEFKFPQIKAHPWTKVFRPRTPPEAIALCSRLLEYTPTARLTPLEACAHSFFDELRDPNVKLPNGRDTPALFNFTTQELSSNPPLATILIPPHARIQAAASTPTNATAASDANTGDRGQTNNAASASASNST
UniProt P46940: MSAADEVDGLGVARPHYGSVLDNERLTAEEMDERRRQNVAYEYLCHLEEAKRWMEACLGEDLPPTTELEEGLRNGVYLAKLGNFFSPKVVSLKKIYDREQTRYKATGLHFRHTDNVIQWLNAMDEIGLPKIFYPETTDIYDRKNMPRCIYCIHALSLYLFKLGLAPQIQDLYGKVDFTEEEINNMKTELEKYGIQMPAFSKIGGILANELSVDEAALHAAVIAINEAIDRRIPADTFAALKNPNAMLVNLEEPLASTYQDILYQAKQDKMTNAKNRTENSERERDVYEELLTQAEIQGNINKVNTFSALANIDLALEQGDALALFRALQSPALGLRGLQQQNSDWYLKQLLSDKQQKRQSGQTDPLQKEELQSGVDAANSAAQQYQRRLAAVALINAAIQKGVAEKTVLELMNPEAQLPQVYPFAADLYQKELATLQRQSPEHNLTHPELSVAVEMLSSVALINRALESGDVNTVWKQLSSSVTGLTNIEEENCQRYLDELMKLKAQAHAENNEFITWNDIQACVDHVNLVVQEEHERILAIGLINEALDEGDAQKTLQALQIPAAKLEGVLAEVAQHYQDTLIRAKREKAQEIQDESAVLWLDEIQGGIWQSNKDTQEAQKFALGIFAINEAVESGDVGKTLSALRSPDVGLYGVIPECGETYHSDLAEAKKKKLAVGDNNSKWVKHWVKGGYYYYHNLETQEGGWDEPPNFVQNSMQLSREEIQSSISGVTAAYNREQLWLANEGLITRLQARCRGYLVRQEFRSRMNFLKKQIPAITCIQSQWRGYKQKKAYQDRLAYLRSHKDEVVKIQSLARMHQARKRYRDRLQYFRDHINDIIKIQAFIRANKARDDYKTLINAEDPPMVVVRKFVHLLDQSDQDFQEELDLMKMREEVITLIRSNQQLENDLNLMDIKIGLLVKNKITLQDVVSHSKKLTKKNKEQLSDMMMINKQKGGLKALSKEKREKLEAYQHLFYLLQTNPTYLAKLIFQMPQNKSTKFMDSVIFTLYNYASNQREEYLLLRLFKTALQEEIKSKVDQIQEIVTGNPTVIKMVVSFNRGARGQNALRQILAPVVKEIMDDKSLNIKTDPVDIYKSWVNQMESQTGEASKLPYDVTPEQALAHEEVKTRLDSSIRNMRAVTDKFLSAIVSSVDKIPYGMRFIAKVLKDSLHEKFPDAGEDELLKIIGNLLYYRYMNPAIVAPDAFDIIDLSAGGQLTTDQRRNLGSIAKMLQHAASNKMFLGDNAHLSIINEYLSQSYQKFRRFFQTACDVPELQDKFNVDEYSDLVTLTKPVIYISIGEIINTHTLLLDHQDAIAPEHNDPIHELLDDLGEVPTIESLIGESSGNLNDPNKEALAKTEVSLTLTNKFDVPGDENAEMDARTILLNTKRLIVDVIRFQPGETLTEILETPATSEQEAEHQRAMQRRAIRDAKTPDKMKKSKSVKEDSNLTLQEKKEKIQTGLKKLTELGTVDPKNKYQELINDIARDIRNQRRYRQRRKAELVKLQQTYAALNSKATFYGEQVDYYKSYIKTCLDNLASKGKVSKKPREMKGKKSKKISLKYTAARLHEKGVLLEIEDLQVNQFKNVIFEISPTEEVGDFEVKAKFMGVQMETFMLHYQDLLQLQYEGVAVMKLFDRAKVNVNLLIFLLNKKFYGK

Columns and labels:
[1] = target: PER2 (endogenous, mouse liver) (mouse (endogenous in liver)) (UniProt O54943); test: co-IP; mouse liver extracts immunoprecipitated and then immunoblotted with the indicated antibodies; endogenous proteins
[2] = target: Venus-tagged PER2 (mouse) (UniProt O54943); test: co-IP; lysates of transfected U2OS cells (48 h post-transfection, RIPA buffer: 50 mM HEPES pH 7.4, 150 mM NaCl, 1% NP-40, 0.5% sodium deoxycholate) immunoprecipitated with anti-GFP antibody on protein-G magnetic beads at 4 °C overnight to capture PER2-Venus; immunoblot for endogenous partners

Row | Substance | binding [1] | binding [2]
1 | DYRK1A (endogenous, mouse liver) (from UniProt Q61214 1-763) (enzyme) | binds | –
2 | PPP2R1A (protein phosphatase regulatory subunit) (from UniProt P30153 1-589) | – | binds
3 | TNPO1 (nuclear import protein; Transportin 1) (from UniProt Q92973 1-898) | – | binds

More lines, now with the values ahead:

Row | binding [1] | binding [2] | Substance
4 | – | binds | GSK3B (endogenous, U2OS cells) (from UniProt P49841 1-420) (enzyme)
5 | – | binds | IQGAP1 (CaM-binding scaffolding protein) (from UniProt P46940 1-1657)
